Reference: PubChem BioAssay AID328 (DTP/NCI, 2004)
The list does not hold the whole screen: it gathers tests that were run many times, whatever their T/C, doses with no T/C, and many T/C values between a quarter and a half above the control. Other doses and runs of a compound stand elsewhere. T/C gives the treated animals as a percentage of the vehicle group. Some entries give survivors of the animals treated and no T/C: the source files T/C as zero there, which appears to mark a toxic dose or a test without result, not a measured value. Some doses without a T/C left all or most animals alive at the check, yet need not have been tolerated: survival well below the control is almost never listed, so the zero probably covers shortened survival too. Counts of survivors are from the toxicity check (mostly the fifth day) where no day follows; animals may have died later. Schedules are NCI's codes, read here as Q, the interval in days (D) or hours (H), X, the number of doses. Some entries hold several experiments; their values stand side by side, smallest first. For survival time, the PubChem record calls one and a half times the control and up active, and a quarter to a half above the control has no call in these data; cut-offs in other NCI protocols can differ. Some T/C values are followed by the survivors on the day toxicity was checked, most often the fifth; where none is given, no animal had died by that day.

System: BDF1 mice, P388 leukemia ip, median survival T/C
Assay: NCI In Vivo Anticancer Drug Screen. Data for tumor model P388 Leukemia (intraperitoneal) in B6D2F1 (BDF1) mice
Settings: T/C endpoint: median survival time, higher T/C = longer survival
Outline: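 Transplantable tumour in mice; compound vs vehicle dosing; survival scored; ratio of treated to control reported.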

[1] = dose: 25.0 mg/kg/injection, schedule: Q01DX009 (ip), vehicle: saline
[2] = dose: 150.0 mg/kg/injection, schedule: Q01DX009 (ip), vehicle: saline
[3] = dose: 300.0 mg/kg/injection, schedule: Q01DX009 (ip), vehicle: saline
[4] = dose: 6.25 mg/kg/injection, schedule: Q01DX009 (ip), vehicle: saline with Tween-80
[5] = dose: 100.0 mg/kg/injection, schedule: Q04DX003 (ip), vehicle: saline with Tween-80
[6] = dose: 50.0 mg/kg/injection, schedule: Q01DX009 (ip), vehicle: saline
[7] = dose: 100.0 mg/kg/injection, schedule: Q04DX003 (ip), vehicle: saline
[8] = dose: 200.0 mg/kg/injection, schedule: Q01DX009 (ip), vehicle: saline
[9] = dose: 75.0 mg/kg/injection, schedule: Q01DX009 (ip), vehicle: saline
[10] = dose: 200.0 mg/kg/injection, schedule: Q01DX009 (ip), vehicle: saline with Tween-80

For CNC1=C(N2CC2)C(=O)C(NC)=C(N2CC2)C1=O, the T/C (dose: 0.05 mg/kg/injection, schedule: Q01DX009 (ip), vehicle: saline) was 128 % of control, the survivor count (dose: 0.2 mg/kg/injection, schedule: Q01DX009 (ip), vehicle: saline) was 6 of 6 and the survivor count (dose: 0.4 mg/kg/injection, schedule: Q01DX009 (ip), vehicle: saline) was 6 of 6. The survivor count (dose: 0.8 mg/kg/injection, schedule: Q01DX009 (ip), vehicle: saline) was 3 of 6 and 6 of 6.
Cc1c(CNc2ccc(C(=O)NC(CC(=O)O)C(=O)O)cc2)ccc2nc(N)nc(N)c12 (stereo not given) was tested, and the survivor count [1] was 5 of 6.
With CCOC(=O)C(NC=O)C(=O)OCC the survivor count [1] was 6 of 6.
For CN(C)NCCC#N, the T/C [2] was 127 % of control, the survivor count (dose: 225.0 mg/kg/injection, schedule: Q01DX009 (ip), vehicle: saline) was 6 of 6 and the survivor count [3] was 5 of 6. For the same compound, the survivor count (dose: 600.0 mg/kg/injection, schedule: Q01DX009 (ip), vehicle: saline) was 0 of 6.
COc1cc2ccc3c4cc5c(cc4cnc3c2cc1OC)OCO5 was tested, and the survivor count (dose: 3.12 mg/kg/injection, schedule: Q01DX009 (ip), vehicle: saline with Tween-80) was 6 of 6, the survivor count [4] was 5 of 6 and the survivor count [5] was 6 of 6. For the same compound, the survivor count (dose: 200.0 mg/kg/injection, schedule: Q04DX003 (ip), vehicle: saline with Tween-80) was 6 of 6.
CCCCCC#CC(=O)O was tested, and the survivor count (dose: 400.0 mg/kg/injection, schedule: Q01DX009 (ip), vehicle: saline with Tween-80) was 4 of 6.
In the case of c1ccc(C[n+]2ccc(-c3cc[n+](Cc4ccccc4)cc3)cc2)cc1, the survivor count (dose: 1.25 mg/kg/injection, schedule: Q01DX010 (ip), vehicle: saline) is reported as 6 of 6, the survivor count (dose: 2.5 mg/kg/injection, schedule: Q01DX010 (ip), vehicle: saline) is reported as 5 of 6 and 6 of 6 and the survivor count (dose: 5.0 mg/kg/injection, schedule: Q01DX010 (ip), vehicle: saline) is reported as 0 of 6. For the same compound, the survivor count (dose: 10.0 mg/kg/injection, schedule: Q01DX010 (ip), vehicle: saline) was 0 of 6 and the survivor count (dose: 1250.0 micrograms/kg/injection, schedule: Q01DX010 (ip), vehicle: saline) was 7 of 7.
CC1CN1CCS(=O)(=O)CCN1CC1C (stereo not given) was tested, and the T/C (dose: 100.0 mg/kg/injection, schedule: Q01DX009 (ip), vehicle: other) was 136 % of control.
Cc1nc(C(=O)O)c(C)c(=O)[nH]1 was tested, and the T/C (dose: 12.5 mg/kg/injection, schedule: Q04DX003 (ip), vehicle: water) was 131 % of control, the survivor count (dose: 25.0 mg/kg/injection, schedule: Q04DX003 (ip), vehicle: water) was 3 of 6 and the survivor count (dose: 50.0 mg/kg/injection, schedule: Q04DX003 (ip), vehicle: water) was 2 of 6. For the same compound, the survivor count (dose: 100.0 mg/kg/injection, schedule: Q04DX003 (ip), vehicle: water) was 0 of 6 and the survivor count (dose: 200.0 mg/kg/injection, schedule: Q04DX003 (ip), vehicle: water) was 0 of 6.
In the case of CCCC#CC#N, the survivor count (dose: 100.0 mg/kg/injection, schedule: Q01DX009 (ip), vehicle: olive oil, sesame oil, peanut oil) is reported as 2 of 6 and the survivor count (dose: 200.0 mg/kg/injection, schedule: Q01DX009 (ip), vehicle: olive oil, sesame oil, peanut oil) is reported as 0 of 6.
In the case of CCCCCC(CN(C)C)C(=O)/C=C/c1c(Cl)cccc1Cl (stereo not given), the survivor count (dose: 25.0 mg/kg/injection, schedule: Q01DX009 (ip), vehicle: Klucel (hydroxypropylcellulose) (HPC)) is reported as 4 of 6 and the survivor count (dose: 95.0 mg/kg/injection, schedule: Q01DX001 (ip), vehicle: saline) is reported as 3 of 6.
In the case of CC[As](=O)(O)CC, the survivor count [6] is reported as 6 of 6, the survivor count (dose: 88.0 mg/kg/injection, schedule: Q01DX009 (ip), vehicle: saline) is reported as 6 of 6 and the survivor count [7] is reported as 6 of 6. The T/C [8] was 131, 145, 149 % of control and the T/C [3] was 131 % of control.
For O=C1NC(=O)C(c2ccccc2)(c2ccccc2)N1CCS, the survivor count (dose: 12.5 mg/kg/injection, schedule: Q04DX003 (ip), vehicle: saline) was 6 of 6, the survivor count (dose: 25.0 mg/kg/injection, schedule: Q04DX003 (ip), vehicle: saline) was 6 of 6 and the survivor count [6] was 0 of 6. The survivor count (dose: 50.0 mg/kg/injection, schedule: Q04DX003 (ip), vehicle: saline) was 6 of 6, the survivor count [7] was 6 of 6 and the survivor count (dose: 200.0 mg/kg/injection, schedule: Q04DX003 (ip), vehicle: saline) was 6 of 6.
For N#CO, the survivor count [6] was 6 of 6, the T/C [9] was 136 % of control and the T/C [2] was 127 % of control. The survivor count [8] was 3 of 6.
With CC(C)CC(CC(C)C)NCC(C)OC(=O)c1ccc([N+](=O)[O-])cc1 (stereo not given) the survivor count (dose: 400.0 mg/kg/injection, schedule: Q01DX009 (ip), vehicle: water) was 3 of 6.
In the case of CCOC(=O)c1cc(N)c(C(=O)OCC)cc1N, the T/C [10] is reported as 125 % of control.
For O=S(=O)(F)c1cc(C[P+](c2ccccc2)(c2ccccc2)c2ccccc2)ccc1Cl, the T/C (dose: 4.0 mg/kg/injection, schedule: Q01DX009 (ip), vehicle: saline with Tween-80) was 131 % of control, the T/C [4] was 140 % of control and the T/C (dose: 8.0 mg/kg/injection, schedule: Q01DX009 (ip), vehicle: saline with Tween-80) was 136 % of control. The T/C (dose: 8.0 mg/kg/injection, schedule: Q01DX009 (ip), vehicle: saline) was 135 % of control, the T/C (dose: 12.0 mg/kg/injection, schedule: Q01DX009 (ip), vehicle: Klucel (hydroxypropylcellulose) (HPC)) was 127 % of control and the T/C (dose: 12.0 mg/kg/injection, schedule: Q01DX009 (ip), vehicle: saline) was 135 % of control. For the same compound, the T/C (dose: 12.5 mg/kg/injection, schedule: Q01DX009 (ip), vehicle: saline with Tween-80) was 135 % of control [5 of 6 alive], the T/C (dose: 18.0 mg/kg/injection, schedule: Q01DX009 (ip), vehicle: Klucel (hydroxypropylcellulose) (HPC)) was 127 % of control and the T/C (dose: 18.0 mg/kg/injection, schedule: Q01DX009 (ip), vehicle: saline) was 140 % of control.
CC(C)CC1NC(=O)C(Cc2ccc(OCc3ccccc3)cc2)NC1=O (stereo not given) was tested, and the T/C [5] was 127 % of control.
With C#CCSC(=N)N the T/C [1] was 130 % of control, the survivor count [6] was 6 of 6 and the survivor count [9] was 0 of 6 and 2 of 6. The survivor count (dose: 150.0 mg/kg/injection, schedule: Q04DX003 (ip), vehicle: saline) was 0 of 6.
Cc1nc2ccc(O)cc2cc1CBr was tested, and the T/C [1] was 130 % of control, the survivor count [6] was 2 of 6 and 3 of 6 and the survivor count [7] was 3 of 6.
With O=c1cc(-c2ccc(OCc3ccccc3)c(-c3c(OCc4ccccc4)cc(OCc4ccccc4)c4c(=O)cc(-c5ccc(OCc6ccccc6)cc5)oc34)c2)oc2cc(OCc3ccccc3)cc(OCc3ccccc3)c12 the survivor count (dose: 200.0 mg/kg/injection, schedule: Q01DX001 (ip), vehicle: saline with Tween-80) was 6 of 6 and the survivor count (dose: 400.0 mg/kg/injection, schedule: Q01DX001 (ip), vehicle: saline with Tween-80) was 6 of 6.
In the case of CCCCCC(O)C1C(=O)OC(C)C(O)/C=C/C=C/C=C/C=C\C=C(\C)C(O)CC(O)CC(O)CC(O)CC(O)CC(O)CC1O (stereo not given), the T/C (dose: 5.0 mg/kg/injection, schedule: Q01DX009 (ip), vehicle: saline) is reported as 134 % of control, the survivor count (dose: 10.0 mg/kg/injection, schedule: Q01DX009 (ip), vehicle: saline) is reported as 2 of 3 and the survivor count (dose: 20.0 mg/kg/injection, schedule: Q01DX009 (ip), vehicle: saline) is reported as 0 of 3. The survivor count (dose: 29.0 mg/kg/injection, schedule: Q01DX009 (ip), vehicle: Klucel (hydroxypropylcellulose) (HPC)) was 2 of 6, the survivor count (dose: 45.0 mg/kg/injection, schedule: Q01DX009 (ip), vehicle: Klucel (hydroxypropylcellulose) (HPC)) was 0 of 6 and the survivor count (dose: 65.0 mg/kg/injection, schedule: Q01DX009 (ip), vehicle: Klucel (hydroxypropylcellulose) (HPC)) was 0 of 6.
CN(C)C1CCc2ccccc2C1OC(=O)/C=C/c1ccccc1 (stereo not given) was tested, and the T/C (dose: 50.0 mg/kg/injection, schedule: Q01DX009 (ip), vehicle: saline with Tween-80) was 125 % of control [5 of 6 alive], the T/C (dose: 100.0 mg/kg/injection, schedule: Q01DX009 (ip), vehicle: saline with Tween-80) was 126 % of control and the survivor count [10] was 1 of 6 and 3 of 6.
